# Out of some 140,000 compounds screened, about 4,300 (3.1%) were called active. The shares of active, inactive and inconclusive entries below differ from those in the screen.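 How the source made its calls: active means readout at or below -70, meaning at least 70% loss of cells showing the perinucleolar compartment, a nuclear body marking cancer cells; inconclusive means readout between -30 and a set limit; inactive means the rest.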
# Assay: High Content Assay for Compounds that inhibit the Assembly of the Perinucleolar Compartment;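 further: plate controls were DMSO wells for no effect and camptothecin positive control wells for full effect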
# Conditions: PC3M PTB-GFP, PNC prevalence imaging, 16 h; at 10 µM; stronger effect = lower value
# Method in brief: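 Compounds are pinned in duplicate onto adhered PC3M cells stably expressing GFP-tagged PTB and incubated 16 h at 37 C. Cells are then fixed, nuclei stained with Hoechst, and PNC-positive cells counted.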
row,SMILES,"activity change (PNC), negative = inhibition"
1,O=C(NC(=S)Nc1ccc(S(=O)(=O)Nc2nccs2)cc1)c1ccc(F)c(F)c1,inactive: 23%
2,Cn1c(C(=O)OC(C(=O)NC2CCCCC2)c2ccncc2)cc2sccc21 (configuration not stated),inactive: -5.54%
3,COc1ccc(NC(=O)c2ccc(COCC(F)(F)C(F)F)cc2)cc1OC,inconclusive: -41.2%
4,Cc1cccn2c(=O)c3cc(C(=O)NCCCN4CCCC4=O)n(C)c3nc12,inconclusive: -55.4%
5,CCOC(=O)C1C(=O)NC(N2CCN(c3ccccc3)CC2)=NC1c1ccco1 (configuration not stated),active: -90%
6,Cc1ccc2c(c1)c1ncnc(N3CCOCC3)c1n2C,inactive: -22.7%
7,COC(=O)c1sc2ccccc2c1NC(=O)c1ccc(S(=O)(=O)N2CCCCC2C)cc1 (configuration not stated),inconclusive: -33.8%
8,O=C(NCc1ccco1)c1cnn2c1NC(c1ccccc1)CC2C(F)(F)F (configuration not stated),inconclusive: -57.7%
9,CC(C)CC(=O)Nc1ccc(N2CCOCC2)cc1,inconclusive: -46.3%
10,CC1CN(C(=O)Cc2ccc(-c3ccccc3)cc2)CC(C)O1 (configuration not stated),inconclusive: -54.5%
11,Nc1nonc1-n1nncc1-c1ccccc1,inactive: 23.5%
12,Cc1ccc(C(=O)N/C(=C/c2ccc(Cl)cc2)C(=O)NCC2CCCO2)cc1 (configuration not stated),inconclusive: -56.6%
13,C=CCN(CC=C)CC(O)Cn1c2ccccc2c2ccccc21 (configuration not stated),inconclusive: -54.6%
14,COc1ccc(-c2oc(/N=C/N3CCCC3)c(C#N)c2-c2ccc(OC)cc2)cc1,inconclusive: -41.4%
15,CCOC(=O)CSc1nc(-c2ccccc2)nc2ccc(F)cc12,inactive: -23.9%
16,COc1ccc(OC)c(S(=O)(=O)N2CCC(C(=O)NC(C)c3ccccc3)CC2)c1 (configuration not stated),inactive: -22.8%
17,CCC(=O)Nc1ccc(Oc2ccc3c(c2)C(=O)N(c2ccc(O)cc2)C3=O)cc1,inactive: -17.7%
18,CCOc1cc(CNCCO)cc(Br)c1OCc1ccc(Cl)cc1Cl,inconclusive: -34.2%
19,Cc1cc(C)c(C(N)=O)c(Nc2cccc(Cl)c2)n1,active: -100%

row,SMILES,"activity change (PNC), negative = inhibition"
1,CCOC(=O)NC(=O)C(=CNc1cccc(OC)c1)C(=O)NC(=O)OCC,inactive: 45.4%
2,CCCCC(=O)OCC(=O)Nc1ccc(OC(F)F)cc1,inactive: 8.11%
3,CC(=O)c1ccc(N2C(=O)NC3(CCCCC3)C2=O)cc1,inactive: -17%
4,Cc1ccc(C)c(N2CCN(C(=O)C3CCN(c4nnc(N5CCCC5=O)s4)CC3)CC2)c1,inconclusive: -37%
5,Cc1cccc(NC(=O)C2C(C(=O)O)C3C=CC2C32CC2)c1C (configuration not stated),inconclusive: -42.6%
6,Cc1ccc(C)c(NC(=S)N=Nc2c(O)n(C)c3ccc(S(=O)(=O)N4CCOCC4)cc23)c1,inconclusive: -36.6%
7,O=C1c2ccccc2C(=O)N1CC1c2ccccc2CCN1C(=O)C1CCCCC1 (configuration not stated),inconclusive: -55.1%
8,O=C(c1ccccc1)N1CCN(C(=S)NCCc2ccccc2)CC1,inactive: -7.67%
9,CCOC(=O)c1sc(NC(=O)CSc2nccc(C)n2)c(C#N)c1C,inconclusive: -38.9%
10,O=C(NCc1ccc(F)cc1)c1cnn2ccccc12,active: -84.4%
11,O=C(NCc1cccnc1)/C(=C\c1ccc(-c2ccc(Br)cc2)o1)S(=O)(=O)c1ccccc1,inconclusive: -50.6%
12,CC(=O)N1CCN(C(=S)NCc2ccccc2)CC1,inconclusive: -39.8%
13,CC(=O)Nc1ccc(S(=O)(=O)N2CCN(c3cc(C)nc4ccccc34)CC2)cc1,inconclusive: -33.7%
14,Cn1cc(S(=O)(=O)CC(=O)Nc2ccc(Br)cc2)c2ccccc21,inconclusive: -65.5%
15,COc1ccc(-c2c(C)n([O-])c(C)c(-c3ccccc3)[n+]2=O)cc1OC,inactive: -3.52%
16,O=C(NCc1ccc(F)cc1)c1ccc(CS(=O)(=O)Cc2ccccc2F)o1,inactive: 69.6%
17,Cn1ccnc1Sc1nnnn1-c1ccccc1,inconclusive: -78.9%
18,Cn1c(/C(C#N)=C(\O)c2ccc(S(=O)(=O)N3CCCCC3)cc2)nc2ccccc21,inconclusive: -57.9%
19,CC(=O)c1cccc(NC(=S)NCCC2=CCCCC2)c1,inactive: -22.1%

# 2 neighbouring compounds out of the list so far, quoted:
row,SMILES,"activity change (PNC), negative = inhibition"
2,CCCCC(=O)OCC(=O)Nc1ccc(OC(F)F)cc1,inactive: 8.11%
3,CC(=O)c1ccc(N2C(=O)NC3(CCCCC3)C2=O)cc1,inactive: -17%

# Additional results.

row,SMILES,"activity change (PNC), negative = inhibition"
1,CCn1nc(C(=O)NNC(=O)COc2ccccc2C)c2ccccc2c1=O,active: -113%
2,Cc1cccc(CSc2nc3sc(C)c(C)c3c(=O)n2Cc2ccco2)c1,inconclusive: -45.9%
3,O=C(CSc1nc2ccccc2c(=O)n1Cc1ccc(Cl)cc1)NCc1cccs1,inactive: -1.56%
4,CC(=O)Nc1ccc(NC(=O)C2CCCN(c3ncccn3)C2)cc1 (configuration not stated),inconclusive: -39.2%
5,CCCOc1ccc(C(=O)O/N=C(\CC)c2ccc(C)cc2)cc1,inconclusive: -65%
6,Cc1cccc(C)c1OCc1nnc(SCC(=O)Nc2ccccc2F)o1,inactive: -26.2%
7,COCCCn1c(Cc2csc(Nc3ccc(F)cc3)n2)nnc1SCC(N)=O,inconclusive: -55.6%
8,O=C(O)c1ccc(NS(=O)(=O)/C=C/c2ccccc2)cc1O,inactive: -9.55%
9,O=C(CN1CCN(c2ccccn2)CC1)N1c2ccccc2Sc2ccc(C(F)(F)F)cc21,active: -114%
10,NS(=O)(=O)c1ccc(CCNC(=O)C(=O)c2c[nH]c3ccccc23)cc1,inactive: -4.76%
11,Cc1cc(C)c(S(=O)(=O)NCc2cn3c(C)csc3n2)cc1C,inconclusive: -42.1%
12,CCOC(=O)Cn1c(CN2CC(C)OC(C)C2)nc2c1c(=O)n(C)c(=O)n2C (configuration not stated),inconclusive: -48.2%
13,O=[N+]([O-])c1cc(-c2nnc(Nc3ccccc3)c3ccccc23)ccc1N1CCOCC1,inactive: -28.1%
14,COCCCN(C(=S)Nc1cc(C)cc(C)c1)C(C)c1ccncc1 (configuration not stated),inactive: 61.6%
15,CN1CCN(C(c2cccnc2)c2ccc3cccnc3c2O)CC1 (configuration not stated),inconclusive: -69.9%
16,O=C(Cc1ccccc1)Nc1nnc(-c2cccs2)s1,inconclusive: -40.5%
17,O=C(NCCCN1CCN(c2ccccc2)CC1)Nc1ccccc1C(F)(F)F,inconclusive: -33.1%
18,Cc1nc(OCc2ccccc2)c2sc3nc4c(cc3c2n1)COC(C)(C)C4,inactive: 23.7%
19,CCOc1ccccc1N1CC(O)=C(c2nc3ccccc3s2)C1=N,inconclusive: -62.4%

# Source: PubChem BioAssay AID2417 (National Center for Advancing Translational Sciences (NCATS), 2010)
